Literature values, collected in PMC10586506 (Drug Metabolism and Disposition, 2023).

Test system: mouse Oct3
Details: read-out: IC50 mouse Oct3; ref Minematsu and Giacomini, 2011; cited from earlier work

In the case of `Cc1ccc(NC(=O)c2ccc(CN3CCN(C)CC3)cc2)cc1Nc1nccc(-c2cccnc2)n1` [Imatinib, imatinib], the IC50 is given as 10 µM.
